The other results are listed elsewhere or left out.
Assays:
Test in all cases: log2 fold change, soluble protein after heating vs DMSO (PISA); higher = thermal stabilisation; K562 cells, 10 uM, 30 min; active = over 0.2 and 3.5 SD of the protein, either way, in both replicates (recomputed)
[1] = compound: CC[C@@H]1C(=O)N(C)c2cnc(Nc3ccc(C(=O)NC4CCN(C)CC4)cc3OC)nc2N1C1CCCC1
Method in brief: (§1)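 Thermal stability values are relative to control samples and come from duplicates. They are expressed as log2 fold changes. For measurement, K562 cells (2×10^6 cells/mL) received 10 μM compound for 30 min, and aliquots were heated for 3 min over 48°C-58°C, pooled, and extracted at 4°C in PBS with 0.5% NP-40. Soluble protein, the supernatant after 21,000xg for 90 min, was quantified by TMTpro 16plex LC-MS/MS with equalised channel sums.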

Sequences of proteins named here, by UniProt entry; tags and fusion partners are left off. A change or cut given only in a name is not applied to a line headed by its entry.
UniProt O60825: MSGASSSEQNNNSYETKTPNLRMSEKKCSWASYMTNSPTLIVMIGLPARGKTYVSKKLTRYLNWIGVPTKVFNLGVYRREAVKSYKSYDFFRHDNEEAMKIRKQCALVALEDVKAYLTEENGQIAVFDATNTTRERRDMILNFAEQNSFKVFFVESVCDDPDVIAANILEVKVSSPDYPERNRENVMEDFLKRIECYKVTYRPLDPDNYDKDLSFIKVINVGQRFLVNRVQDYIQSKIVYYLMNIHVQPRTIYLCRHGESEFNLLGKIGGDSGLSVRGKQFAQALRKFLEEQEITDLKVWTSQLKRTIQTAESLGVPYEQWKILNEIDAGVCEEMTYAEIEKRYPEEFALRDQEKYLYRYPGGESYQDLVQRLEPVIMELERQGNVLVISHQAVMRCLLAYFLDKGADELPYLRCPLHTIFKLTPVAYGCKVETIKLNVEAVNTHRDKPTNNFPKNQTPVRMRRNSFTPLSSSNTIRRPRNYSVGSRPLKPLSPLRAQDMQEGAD
UniProt O95336: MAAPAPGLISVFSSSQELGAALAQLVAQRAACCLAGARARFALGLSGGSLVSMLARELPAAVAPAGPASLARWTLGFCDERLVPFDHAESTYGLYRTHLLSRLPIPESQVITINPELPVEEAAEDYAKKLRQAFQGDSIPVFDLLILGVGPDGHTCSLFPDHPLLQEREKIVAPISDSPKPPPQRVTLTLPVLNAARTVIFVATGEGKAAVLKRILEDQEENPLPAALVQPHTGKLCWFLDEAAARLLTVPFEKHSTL
UniProt Q92508: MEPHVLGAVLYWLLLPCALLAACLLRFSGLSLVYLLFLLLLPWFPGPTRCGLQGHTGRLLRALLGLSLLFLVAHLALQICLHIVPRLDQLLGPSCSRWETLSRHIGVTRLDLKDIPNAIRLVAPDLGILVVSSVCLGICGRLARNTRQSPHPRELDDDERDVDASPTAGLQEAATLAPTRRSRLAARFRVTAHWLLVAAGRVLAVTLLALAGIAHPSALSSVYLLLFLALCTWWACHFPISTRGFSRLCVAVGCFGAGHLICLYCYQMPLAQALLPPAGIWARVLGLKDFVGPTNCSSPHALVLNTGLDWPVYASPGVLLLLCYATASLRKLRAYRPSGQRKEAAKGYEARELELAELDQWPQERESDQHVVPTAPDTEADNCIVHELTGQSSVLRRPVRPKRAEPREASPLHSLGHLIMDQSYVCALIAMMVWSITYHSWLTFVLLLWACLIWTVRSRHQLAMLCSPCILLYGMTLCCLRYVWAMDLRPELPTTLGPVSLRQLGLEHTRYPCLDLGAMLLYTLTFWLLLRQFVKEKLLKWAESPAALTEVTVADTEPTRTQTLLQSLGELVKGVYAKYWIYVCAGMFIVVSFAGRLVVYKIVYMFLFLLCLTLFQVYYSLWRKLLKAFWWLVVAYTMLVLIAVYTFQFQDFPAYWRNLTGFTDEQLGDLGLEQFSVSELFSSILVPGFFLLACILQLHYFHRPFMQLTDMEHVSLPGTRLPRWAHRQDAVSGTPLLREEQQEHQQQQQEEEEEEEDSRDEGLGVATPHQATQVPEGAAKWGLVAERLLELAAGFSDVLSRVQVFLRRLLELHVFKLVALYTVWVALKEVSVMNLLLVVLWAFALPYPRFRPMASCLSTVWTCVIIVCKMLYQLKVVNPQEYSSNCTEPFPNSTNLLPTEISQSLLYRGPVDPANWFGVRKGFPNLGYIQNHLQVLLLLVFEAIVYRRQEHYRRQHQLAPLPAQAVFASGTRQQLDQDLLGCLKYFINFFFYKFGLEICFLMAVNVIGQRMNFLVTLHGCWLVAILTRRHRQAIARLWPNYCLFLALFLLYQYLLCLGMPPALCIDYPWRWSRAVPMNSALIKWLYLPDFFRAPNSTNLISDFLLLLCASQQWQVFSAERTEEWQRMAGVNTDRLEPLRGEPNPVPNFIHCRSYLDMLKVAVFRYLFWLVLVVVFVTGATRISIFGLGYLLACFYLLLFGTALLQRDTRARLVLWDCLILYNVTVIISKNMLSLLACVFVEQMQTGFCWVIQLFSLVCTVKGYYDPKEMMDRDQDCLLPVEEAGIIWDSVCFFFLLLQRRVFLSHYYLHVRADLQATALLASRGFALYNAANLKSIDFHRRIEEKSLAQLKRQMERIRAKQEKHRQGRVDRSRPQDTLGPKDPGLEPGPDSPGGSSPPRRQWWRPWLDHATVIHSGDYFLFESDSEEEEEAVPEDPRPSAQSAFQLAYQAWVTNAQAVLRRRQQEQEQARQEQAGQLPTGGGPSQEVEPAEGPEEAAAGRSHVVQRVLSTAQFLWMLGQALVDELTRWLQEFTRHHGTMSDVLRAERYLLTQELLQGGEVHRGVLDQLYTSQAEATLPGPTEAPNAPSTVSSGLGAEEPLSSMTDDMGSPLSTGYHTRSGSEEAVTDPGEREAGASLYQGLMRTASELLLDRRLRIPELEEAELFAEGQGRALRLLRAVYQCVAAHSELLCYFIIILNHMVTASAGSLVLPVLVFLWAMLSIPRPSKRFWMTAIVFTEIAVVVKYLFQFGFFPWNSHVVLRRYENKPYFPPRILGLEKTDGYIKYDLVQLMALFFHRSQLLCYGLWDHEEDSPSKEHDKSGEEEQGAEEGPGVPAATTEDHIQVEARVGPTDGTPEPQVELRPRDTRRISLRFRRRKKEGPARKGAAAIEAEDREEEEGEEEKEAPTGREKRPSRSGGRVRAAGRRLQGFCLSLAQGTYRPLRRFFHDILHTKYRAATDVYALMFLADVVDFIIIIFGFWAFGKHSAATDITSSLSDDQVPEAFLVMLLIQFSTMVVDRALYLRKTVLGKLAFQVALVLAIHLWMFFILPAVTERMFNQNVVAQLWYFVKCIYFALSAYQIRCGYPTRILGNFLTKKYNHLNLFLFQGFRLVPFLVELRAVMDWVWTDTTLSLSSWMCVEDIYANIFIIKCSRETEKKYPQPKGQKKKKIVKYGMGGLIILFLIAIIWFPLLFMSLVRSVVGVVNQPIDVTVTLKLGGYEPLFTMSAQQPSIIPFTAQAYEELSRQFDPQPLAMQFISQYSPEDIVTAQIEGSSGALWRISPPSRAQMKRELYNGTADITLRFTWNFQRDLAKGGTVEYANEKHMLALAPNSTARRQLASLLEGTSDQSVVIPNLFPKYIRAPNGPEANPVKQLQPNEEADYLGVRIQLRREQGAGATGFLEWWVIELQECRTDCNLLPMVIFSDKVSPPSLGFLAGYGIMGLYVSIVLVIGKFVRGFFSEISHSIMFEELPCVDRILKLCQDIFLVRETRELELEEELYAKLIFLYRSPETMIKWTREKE
UniProt Q96HS1, whole entry, looked up: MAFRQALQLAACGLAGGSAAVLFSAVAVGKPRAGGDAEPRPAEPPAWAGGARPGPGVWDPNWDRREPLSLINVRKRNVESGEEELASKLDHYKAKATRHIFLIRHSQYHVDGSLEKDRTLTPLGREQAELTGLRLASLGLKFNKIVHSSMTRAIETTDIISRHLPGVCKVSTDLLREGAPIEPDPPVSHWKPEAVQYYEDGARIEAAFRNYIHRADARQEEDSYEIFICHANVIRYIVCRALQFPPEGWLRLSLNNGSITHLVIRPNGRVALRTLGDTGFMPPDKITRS
UniProt Q8N0Y7: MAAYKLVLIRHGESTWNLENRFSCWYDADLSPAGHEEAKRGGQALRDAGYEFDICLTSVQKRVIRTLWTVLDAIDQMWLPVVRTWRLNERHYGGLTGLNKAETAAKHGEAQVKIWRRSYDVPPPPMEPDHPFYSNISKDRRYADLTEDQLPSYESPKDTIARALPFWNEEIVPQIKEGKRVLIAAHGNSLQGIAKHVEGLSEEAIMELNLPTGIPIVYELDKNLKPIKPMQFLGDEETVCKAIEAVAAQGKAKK
UniProt Q9BUL5: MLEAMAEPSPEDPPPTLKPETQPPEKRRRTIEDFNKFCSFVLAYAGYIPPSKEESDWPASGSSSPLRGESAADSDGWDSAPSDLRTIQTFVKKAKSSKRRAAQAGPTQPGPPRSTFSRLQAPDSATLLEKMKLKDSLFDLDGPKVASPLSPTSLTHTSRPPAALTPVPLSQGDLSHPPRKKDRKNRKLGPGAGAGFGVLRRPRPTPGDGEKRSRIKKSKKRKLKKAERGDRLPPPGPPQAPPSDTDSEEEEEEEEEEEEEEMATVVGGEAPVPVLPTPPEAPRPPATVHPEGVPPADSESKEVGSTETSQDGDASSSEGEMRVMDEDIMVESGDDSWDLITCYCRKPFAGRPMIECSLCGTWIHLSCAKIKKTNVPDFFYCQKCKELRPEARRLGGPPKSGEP
UniProt Q9Y237, whole entry, looked up: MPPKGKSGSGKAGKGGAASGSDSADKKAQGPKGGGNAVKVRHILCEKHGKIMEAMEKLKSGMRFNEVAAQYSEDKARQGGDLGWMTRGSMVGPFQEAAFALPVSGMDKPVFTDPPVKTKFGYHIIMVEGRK
UniProt Q92643: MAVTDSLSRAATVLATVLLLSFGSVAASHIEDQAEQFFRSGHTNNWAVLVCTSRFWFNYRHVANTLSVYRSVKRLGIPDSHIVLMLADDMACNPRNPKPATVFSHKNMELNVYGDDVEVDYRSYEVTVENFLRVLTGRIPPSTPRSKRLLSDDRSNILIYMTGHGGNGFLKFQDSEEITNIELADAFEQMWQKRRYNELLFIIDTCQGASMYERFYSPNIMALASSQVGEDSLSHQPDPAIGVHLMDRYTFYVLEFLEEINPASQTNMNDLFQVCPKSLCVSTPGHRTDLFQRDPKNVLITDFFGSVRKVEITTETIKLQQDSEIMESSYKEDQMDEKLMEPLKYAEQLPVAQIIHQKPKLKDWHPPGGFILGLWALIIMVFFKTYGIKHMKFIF
UniProt P51178: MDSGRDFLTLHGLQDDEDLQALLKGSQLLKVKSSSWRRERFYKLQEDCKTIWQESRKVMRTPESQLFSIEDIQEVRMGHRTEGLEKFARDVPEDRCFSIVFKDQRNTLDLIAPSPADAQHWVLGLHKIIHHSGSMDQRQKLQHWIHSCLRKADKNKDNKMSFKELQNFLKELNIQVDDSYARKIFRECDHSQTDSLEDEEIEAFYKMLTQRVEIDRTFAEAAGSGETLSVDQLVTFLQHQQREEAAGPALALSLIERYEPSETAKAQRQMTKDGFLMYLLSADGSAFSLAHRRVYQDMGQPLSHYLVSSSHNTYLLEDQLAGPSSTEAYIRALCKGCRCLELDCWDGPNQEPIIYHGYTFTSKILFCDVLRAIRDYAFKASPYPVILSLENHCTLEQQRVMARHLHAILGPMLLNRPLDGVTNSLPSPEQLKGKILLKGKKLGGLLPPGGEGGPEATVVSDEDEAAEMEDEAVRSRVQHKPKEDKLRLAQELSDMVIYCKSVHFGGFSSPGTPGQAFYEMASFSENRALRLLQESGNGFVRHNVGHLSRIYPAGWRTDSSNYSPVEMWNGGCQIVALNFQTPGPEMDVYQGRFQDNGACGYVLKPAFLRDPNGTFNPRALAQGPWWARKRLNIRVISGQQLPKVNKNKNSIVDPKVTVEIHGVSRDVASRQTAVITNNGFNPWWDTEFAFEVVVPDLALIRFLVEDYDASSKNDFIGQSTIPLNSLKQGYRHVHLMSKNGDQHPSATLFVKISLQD
UniProt Q9NWS0, whole entry, looked up: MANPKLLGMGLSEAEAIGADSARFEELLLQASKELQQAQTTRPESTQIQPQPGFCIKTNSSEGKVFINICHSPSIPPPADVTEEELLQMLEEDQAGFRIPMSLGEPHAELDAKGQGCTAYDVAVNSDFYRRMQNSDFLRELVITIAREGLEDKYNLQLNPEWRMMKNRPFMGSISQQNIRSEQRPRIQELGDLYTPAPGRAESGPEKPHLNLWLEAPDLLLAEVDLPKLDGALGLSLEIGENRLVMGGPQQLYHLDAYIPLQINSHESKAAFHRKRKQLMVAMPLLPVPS
UniProt P12273: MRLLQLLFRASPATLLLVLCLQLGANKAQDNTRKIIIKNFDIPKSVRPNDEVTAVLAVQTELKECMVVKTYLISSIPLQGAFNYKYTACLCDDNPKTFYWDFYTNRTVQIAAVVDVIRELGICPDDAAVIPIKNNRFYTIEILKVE
UniProt Q13492: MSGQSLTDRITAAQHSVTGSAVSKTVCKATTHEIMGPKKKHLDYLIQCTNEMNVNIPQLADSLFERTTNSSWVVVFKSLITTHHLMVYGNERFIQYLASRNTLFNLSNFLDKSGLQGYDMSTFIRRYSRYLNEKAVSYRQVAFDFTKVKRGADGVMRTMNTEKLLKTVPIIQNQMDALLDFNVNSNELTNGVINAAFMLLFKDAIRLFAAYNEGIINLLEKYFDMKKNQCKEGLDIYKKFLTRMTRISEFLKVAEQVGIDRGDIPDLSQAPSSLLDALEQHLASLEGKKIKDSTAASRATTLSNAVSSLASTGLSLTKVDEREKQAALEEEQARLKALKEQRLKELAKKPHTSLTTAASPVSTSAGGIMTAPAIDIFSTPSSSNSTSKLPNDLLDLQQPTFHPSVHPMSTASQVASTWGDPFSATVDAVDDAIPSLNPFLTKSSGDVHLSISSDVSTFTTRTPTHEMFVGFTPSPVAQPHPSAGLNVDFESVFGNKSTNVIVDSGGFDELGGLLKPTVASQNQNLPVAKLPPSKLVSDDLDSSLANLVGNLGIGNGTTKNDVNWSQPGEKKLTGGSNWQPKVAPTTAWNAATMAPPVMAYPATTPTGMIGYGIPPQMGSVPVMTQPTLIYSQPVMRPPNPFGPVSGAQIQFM

[2] = compound: CC[C@@H]1C(=O)N(C)c2cnc(Nc3ccc(C(=O)N[C@H]4CC[C@H](N5CCN(CC6CC6)CC5)CC4)cc3OC)nc2N1C(C)C [volasertib]
Method in brief: as §1

[3] = compound: CC[C@H](C)N1C=C(C2=C(C=C(C=C21)C3=CN=C(C=C3)N4CCNCC4)C(=O)NCC5=C(C=C(NC5=O)C)C)C
Method in brief: as §1

[4] = compound: CC[C@H](C)[C@@H](C(=O)N[C@@H]([C@@H](C)O)C(=O)N[C@@H](CC(C)C)C(=O)[C@]1(CO1)C)NC(=O)[C@H]([C@@H](C)CC)N(C)C(=O)C [epoxomicin]
Method in brief: as §1

[5] = compound: CCn1c(C(=O)N(C2CC2)C2CC2)cc2c3c(ncn3C)c(Nc3cc(C)n(C)n3)nc21
Method in brief: as §1

[6] = compound: CCn1cc(-c2ccnc3[nH]c(-c4cccc(CN(C)C)c4)cc23)c(-c2ccc(NC(=O)N(C)C)cc2)n1
Method in brief: as §1

[7] = compound: CN(C)CC(=O)Nc1ccc2[nH]c(=O)c3ccccc3c2c1
Method in brief: as §1

[8] = compound: CN(CCOC1=CC=C(C=C1)C[C@H]2C(=O)NC(=O)S2)C3=CC=CC=N3 (racemic) [rosiglitazone]
Method in brief: as §1

[9] = compound: CN1C2=C(C3=C1C(=O)N(N=C3)CC4=CC(=CC=C4)N)SC(=C2)S(=O)C
Method in brief: as §1

[10] = compound: CN1CCC(CNc2ccc3ncc(-c4cccc(OC(F)(F)F)c4)n3n2)CC1
Method in brief: as §1

[11] = compound: CN1CCN(CCOc2cc(OC3CCOCC3)c3c(Nc4c(Cl)ccc5c4OCO5)ncnc3c2)CC1 [saracatinib]
Method in brief: as §1

[12] = compound: CN1CCN(c2nc(C3=C(c4c[nH]c5ccccc45)C(=O)NC3=O)c3ccccc3n2)CC1 [sotrastaurin]
Method in brief: as §1

[13] = compound: CN1CC[C@H](c2c(O)cc(O)c3c(=O)cc(-c4ccccc4Cl)oc23)[C@H](O)C1 [alvocidib]
Method in brief: as §1

[14] = compound: CN1CCc2c(c3ccccc3n2Cc2ccc(C(=O)NO)cc2)C1 [Tubastatin A]
Method in brief: as §1

[15] = compound: CNC(=O)C1=CC=CC=C1NC2=NC(=NC=C2Cl)NC3=C(C=C(C=C3)N4CCOCC4)OC
Method in brief: as §1

[16] = compound: CNC(=O)c1ccc(Nc2ncc(C(F)(F)F)c(NCc3nccnc3N(C)S(C)(=O)=O)n2)cc1 [defactinib]
Method in brief: as §1

[17] = compound: CNCc1ccc(-c2[nH]c3cc(F)cc4c3c2CCNC4=O)cc1 [rucaparib]
Method in brief: as §1

[18] = compound: CNc1nc(-c2ccc3c(N)n[nH]c3c2)cc(N2C[C@@H](C(=O)NC3CCCCC3)CC[C@H]2C)n1
Method in brief: as §1

[19] = compound: COC(=O)N[C@@H](C)CNc1nccc(-c2cn(C(C)C)nc2-c2cc(Cl)cc(NS(C)(=O)=O)c2F)n1 [encorafenib]
Method in brief: as §1

[20] = compound: COC(=O)[C@H](CCSC)NC(=O)C1=C(C=C(C=C1)NC[C@H](CS)N)C2=CC=CC=C2
Method in brief: as §1

Measured: log2 fold change

PICALM (UniProt H0YEY8)
inactive: [1] -0.042 | [2] -0.099 | [3] -0.051 | [4] -0.01 | [5] 0.048 | [6] 0.171 | [7] -0.08 | [8] -0.054 | [9] -0.018 | [10] -0.035 | [11] 0.035 | [12] 0.09 | [13] -0.039 | [14] 0.014 | [15] -0.026 | [16] -0.017 | [17] 0.028 | [18] 0.095 | [19] -0.031 | [20] 0.029

PFKFB2 (UniProt O60825)
inactive: [1] -0.012 | [2] -0.018 | [3] 0.007 | [4] 0.003 | [5] 0 | [6] 0.004 | [7] 0.041 | [8] -0.016 | [9] -0.135 | [10] -0.152 | [11] 0.006 | [12] 0.046 | [13] -0.019 | [14] -0.029 | [15] -0.036 | [16] -0.012 | [17] -0.009 | [18] -0.012 | [19] -0.004 | [20] -0.013

PGLS (UniProt O95336)
inactive: [1] 0.023 | [2] -0.025 | [3] -0.06 | [4] 0.366 | [5] -0.022 | [6] 0.031 | [7] 0.186 | [8] -0.01 | [9] -0.048 | [10] 0.127 | [11] -0.036 | [12] 0.026 | [13] -0.082 | [14] 0.043 | [15] -0.033 | [16] -0.064 | [17] -0.02 | [18] -0.07 | [19] -0.061 | [20] 0.146

PIEZO1 (UniProt Q92508)
inactive: [1] 0.03 | [2] -0.015 | [3] -0.03 | [4] 0.035 | [5] -0.007 | [6] -0.024 | [7] 0 | [8] -0.027 | [9] -0.03 | [10] -0.021 | [11] 0.042 | [12] 0.102 | [13] 0.002 | [14] 0.02 | [15] 0.022 | [16] 0.009 | [17] 0.039 | [18] -0.003 | [19] -0.067 | [20] 0.007

PGAM5 (UniProt Q96HS1)
inactive: [1] 0.177 | [2] 0.123 | [3] 0.001 | [4] -0.074 | [5] -0.037 | [6] -0.009 | [7] 0 | [8] -0.02 | [9] 0.146 | [10] 0.148 | [11] -0.033 | [12] 0.042 | [13] 0.207 | [14] -0.011 | [15] 0.056 | [16] 0.184 | [17] 0.273 | [18] 0.027 | [19] 0.052 | [20] 0.005

PGAM4 (UniProt Q8N0Y7)
inactive: [1] 0.019 | [2] 0.11 | [3] -0.051 | [4] -0.026 | [5] 0.008 | [6] 0.012 | [7] 0.004 | [8] 0.015 | [9] -0.027 | [10] -0.03 | [11] 0.027 | [12] 0.035 | [13] -0.009 | [14] -0.026 | [15] -0.044 | [16] -0.001 | [17] 0.004 | [18] -0.014 | [19] -0.058 | [20] 0.033

PHF23 (UniProt Q9BUL5)
inactive: [1] -0.023 | [2] -0.109 | [3] 0.017 | [4] 0.077 | [5] -0.018 | [6] -0.048 | [7] -0.051 | [8] -0.011 | [9] -0.028 | [10] 0.055 | [11] 0.04 | [12] 0.023 | [13] 0.013 | [14] 0.053 | [15] 0 | [16] -0.054 | [17] -0.004 | [18] -0.045 | [19] -0.02 | [20] 0.055

Reprinted from the listing (2 entries):
PIEZO1 (UniProt Q92508)
inactive: [1] 0.03 | [2] -0.015 | [3] -0.03 | [4] 0.035 | [5] -0.007 | [6] -0.024 | [7] 0 | [8] -0.027 | [9] -0.03 | [10] -0.021 | [11] 0.042 | [12] 0.102 | [13] 0.002 | [14] 0.02 | [15] 0.022 | [16] 0.009 | [17] 0.039 | [18] -0.003 | [19] -0.067 | [20] 0.007

PGAM5 (UniProt Q96HS1)
inactive: [1] 0.177 | [2] 0.123 | [3] 0.001 | [4] -0.074 | [5] -0.037 | [6] -0.009 | [7] 0 | [8] -0.02 | [9] 0.146 | [10] 0.148 | [11] -0.033 | [12] 0.042 | [13] 0.207 | [14] -0.011 | [15] 0.056 | [16] 0.184 | [17] 0.273 | [18] 0.027 | [19] 0.052 | [20] 0.005

(continued)

PIN4 isoform 2 (UniProt Q9Y237)
inactive: [1] -0.039 | [2] 0.006 | [3] 0.005 | [4] -0.01 | [5] 0.028 | [6] 0.03 | [7] 0.012 | [8] 0.065 | [9] -0.012 | [10] -0.056 | [11] -0.009 | [12] 0.001 | [13] -0.031 | [14] -0.033 | [15] -0.006 | [16] -0.022 | [17] -0.034 | [18] -0.004 | [19] -0.02 | [20] 0.004

PIGK (UniProt Q92643)
inactive: [1] -0.03 | [2] -0.028 | [3] 0.03 | [4] 0.023 | [5] -0.013 | [6] -0.033 | [7] -0.064 | [8] 0.003 | [9] -0.004 | [10] -0.054 | [11] -0.006 | [12] 0.004 | [13] 0.025 | [14] 0.044 | [15] 0.015 | [16] 0.017 | [17] 0.065 | [18] 0.013 | [19] 0.063 | [20] 0.005

PLCD1 isoform 2 (UniProt P51178)
inactive: [1] 0.031 | [2] 0.117 | [3] 0.068 | [4] 0.006 | [5] -0.022 | [6] -0.09 | [7] -0.014 | [8] 0.048 | [9] -0.011 | [10] -0.078 | [11] -0.026 | [12] -0.028 | [13] -0.106 | [14] 0.041 | [15] -0.087 | [16] -0.065 | [17] 0.038 | [18] 0.087 | [19] 0.011 | [20] 0.021

PIGS (UniProt Q96S52)
inactive: [1] -0.02 | [2] -0.122 | [3] -0.015 | [4] -0.033 | [5] 0.02 | [6] 0.017 | [7] -0.018 | [8] 0.007 | [9] -0.06 | [10] 0.055 | [11] -0.037 | [12] 0.023 | [13] -0.039 | [14] -0.007 | [15] 0.016 | [16] 0.023 | [17] -0.037 | [18] 0.05 | [19] 0.016 | [20] -0.024

PIH1D1 (UniProt Q9NWS0)
inactive: [1] 0.05 | [2] -0.007 | [3] -0.015 | [4] 0.026 | [5] -0.021 | [6] -0.032 | [7] 0.085 | [8] 0.036 | [9] -0.025 | [10] -0.003 | [11] -0.026 | [12] -0.074 | [13] -0.012 | [14] 0.006 | [15] 0.026 | [16] -0.092 | [17] -0.01 | [18] -0.032 | [19] 0.122 | [20] 0.022

PEX2 (UniProt P28328)
inactive: [1] 0.161 | [2] 0.066 | [3] 0.063 | [4] 0.02 | [5] 0.01 | [6] 0.054 | [7] 0.023 | [8] 0.086 | [9] -0.123 | [10] -0.105 | [11] 0.072 | [12] 0.051 | [13] 0.007 | [14] -0.008 | [15] -0.021 | [16] -0.043 | [17] -0.069 | [18] -0.015 | [19] -0.074 | [20] -0.041

PIP (UniProt P12273)
inactive: [1] -0.314 | [2] -0.305 | [3] 0.527 | [4] 0.924 | [5] 0.111 | [6] 0.124 | [7] 0.241 | [8] 0.23 | [9] 0.497 | [10] -0.079 | [11] -0.451 | [12] -0.118 | [13] -0.237 | [14] 0.066 | [15] 0.162 | [16] -0.042 | [17] -0.186 | [18] 0.053 | [19] -0.357 | [20] 0.218

PICALM (UniProt Q13492)
inactive: [1] -0.007 | [2] -0.043 | [3] 0.008 | [4] 0.035 | [5] -0.008 | [6] 0.012 | [7] 0.036 | [8] 0.01 | [9] -0.046 | [10] -0.032 | [11] 0.021 | [12] 0.031 | [13] -0.041 | [14] 0.01 | [15] -0.025 | [16] -0.034 | [17] -0.011 | [18] -0.036 | [19] 0.002 | [20] 0.013

PHGDH (UniProt O43175)
inactive: [1] -0.028 | [2] 0.013 | [3] -0.015 | [4] 0.013 | [5] 0.027 | [6] 0.013 | [7] -0.014 | [8] -0.009 | [9] -0.056 | [10] -0.01 | [11] 0.03 | [12] 0.021 | [13] -0.005 | [14] -0.024 | [15] -0.02 | [16] -0.011 | [17] -0.026 | [18] -0.023 | [19] -0.009 | [20] -0.002

— the supplement of paper PMC10849652
